# Results: PubChem BioAssay AID504834 (National Center for Advancing Translational Sciences (NCATS), 2011)
# The campaign covered roughly 320,000 compounds. About 22,000 (6.9%) were called active. Inconclusive results, whose numbers are uncertain, are shown with a selection of clear calls. Calls come from the whole dose curve; as a rule, active = well fitted inhibition curve with a large enough effect; inconclusive = small, poorly fitted or top-dose-only effect, or another doubt; inactive = no such curve, though single readings can be large or run the other way. Potencies of inconclusive entries are doubtful fits and often do not repeat.
# Experiment: Primary qHTS for delayed death inhibitors of the malarial parasite plastid, 96 hour incubation
# Settings: P. falciparum luciferase reporter growth; series mostly up to 28.7 µM; activity change, negative = inhibition: at the top concentration
# Summary of the method: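 P. falciparum expressing integrated firefly luciferase grown in erythrocytes (2% hematocrit, 0.05% parasitemia final) with compounds for 96 hours at 37 C, 5% CO2. Growth inhibition read as loss of luminescence after adding luciferase detection reagent.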
# % is set by controls: 0 for no effect and ±100 for the full control effect; potency is the fitted concentration of half-maximal effect.
Compound,Potency,"activity change, negative = inhibition"
COc1cc(CN(C(=O)c2cccs2)C2CCS(=O)(=O)C2)cc(OC)c1OC (centres undefined),"inconclusive: 1.17 µM [inhibitor, partial curve, poor fit]",
Cc1ccc(S(=O)(=O)N2CCN(C(=O)CN3CCCSc4ccccc43)CC2)cc1,"inconclusive: 13.1 µM [inhibitor, single point]",
CCOCCCNC(=O)C(NC(=O)Cc1c[nH]c2ccccc12)c1ccccc1 (centres undefined),,inactive: 5.4%
CCOC(=O)C1(Cc2ccccc2C(F)(F)F)CCN(C(=O)c2cc(C(C)=O)n[nH]2)CC1,"inconclusive: 16.5 µM [inhibitor, single point]",
NC(=O)c1cc(S(=O)(=O)N2CCN(c3ccc([N+](=O)[O-])cc3)CC2)cs1,,inactive: 3.91%
O=c1c2ccccc2nc(CNc2ccccc2)n1-c1ccccc1,active: 7.38 µM,
O=C(CN1C(=O)NC2(CCc3ccccc32)C1=O)c1ccccc1 (centres undefined),,inactive: 12%
CCOC(=O)c1cn(CC)c2cc(N3CCN(C)CC3)c(F)cc2c1=O,"inconclusive: 7.38 µM [inhibitor, partial curve, poor fit]",
O=C1CC2(CCN(C(=O)c3ccc(Br)cc3)CC2)Oc2ccccc21,"inconclusive: 18.5 µM [inhibitor, single point]",
Cn1cc(CN2CCC(C(=O)N3CCCCC3)CC2)c(-c2ccccc2F)n1,,inactive: 6.34%
O=C1SCC(c2ccccc2)=NN1Cc1ccccc1,"inconclusive: 8.28 µM [inhibitor, partial curve, poor fit]",
CCCSc1nc(-n2ncc(C#N)c2N)c2c3c(sc2n1)CCC(C)C3 (centres undefined),"inconclusive: 13.1 µM [inhibitor, single point]",
CC(NC(=O)C1CCCN1S(=O)(=O)c1ccccc1)c1ccccc1 (centres undefined),,inactive: 2.44%
COCCNc1nc(-c2cc(-c3ccccc3)on2)cc(C(C)C)n1,"inconclusive: 18.5 µM [inhibitor, single point]",
COc1cc(/C=C2/SC(=O)N(Cc3ccccc3Cl)C2=O)ccc1OCc1ccncc1,"inconclusive: 7.38 µM [inhibitor, single point]",
CC(C)N1C(=O)C2C(C(=O)NC3CCCCC3)C3C=CC2(O3)C1C(=O)NC1CCCCC1 (centres undefined),"inconclusive: 18.5 µM [inhibitor, single point]",
CCOC(=O)c1c(-c2ccccc2)csc1NC(=O)CCN1C(=O)c2ccccc2C1=O,active: 2.62 µM,
COc1cc(CN2CCN(C(=O)CC(C)C)CC2)cc(OC)c1OC,"inconclusive: 0.0465 µM [inhibitor, full curve, poor fit]",
O=C(Cc1ccccc1)NCCSCc1ccc(Cl)cc1,,inactive: 0.894%
ON1C(c2ccccc2)CC2(O)c3nonc3CCC12 (centres undefined),"inconclusive: 13.1 µM [inhibitor, single point]",
COc1ccc2c(c1)CCN=C2Cc1ccc(OC)c(OC)c1,active: 13.1 µM,
Cc1ccc(C)c(N2CCN(C(=O)CCNS(=O)(=O)c3ccc4c(c3)oc(=O)n4C)CC2)c1,active: 1.65 µM,

Compound,Potency,"activity change, negative = inhibition"
COc1cc(NC(=O)c2cc(C)on2)cc(C(=O)Nc2cccc(C(F)(F)F)c2)c1,"inconclusive: 10.4 µM [inhibitor, single point]",
Cc1nn(Cc2ccc(Cl)cc2)c(C)c1NC(=O)CCCn1nc([N+](=O)[O-])c(Cl)c1C,"inconclusive: 16.5 µM [inhibitor, single point]",
Cc1ccccc1NS(=O)(=O)c1ccc(OCC(=O)NCc2cccnc2)cc1,"inconclusive: 4.15 µM [inhibitor, single point]",
CC(C)(C)NC(=O)C(c1ccc(F)cc1)N(Cc1ccco1)C(=O)Cn1nnc(-c2cccs2)n1 (centres undefined),"inconclusive: 11.7 µM [inhibitor, single point]",
Cc1ccc(SCC(=O)NC2CC3CCC(C2)N3C)cc1 (centres undefined),,inactive: -24.4%
COc1cc(C2Nc3cccc4cccc(c34)N2)ccc1O,"inconclusive: 18.5 µM [inhibitor, single point]",
COc1ccc(OCC(O)CN2CC(C)OC(C)C2)cc1 (centres undefined),,inactive: 134%
O=C(/C=C/c1cccc([N+](=O)[O-])c1)NCCN1C(=O)S/C(=C\c2cccnc2)C1=O,"inconclusive: 9.28 µM [inhibitor, partial curve, poor fit]",
Nc1c(C(=O)NCc2ccco2)c2nc3ccccc3nc2n1CCN1CCCCC1,active: 9.28 µM,
O=C1CN(C(=O)c2cc([N+](=O)[O-])ccc2Cl)C(c2ccccc2)c2cc(F)ccc2N1 (centres undefined),"inconclusive: 10.4 µM [inhibitor, single point]",
CN1CCN(NC(=O)c2cn(-c3ccccc3)nc2-c2ccc(OC(F)F)cc2)CC1,"inconclusive: 10.4 µM [inhibitor, single point]",
Nc1nnc(SCC(=O)Nc2nnc(-c3ccccc3)o2)s1,"inconclusive: 13.1 µM [inhibitor, single point]",
CCOc1ccc2cc(C(=O)NCc3ccccc3)c(=N)oc2c1,,inactive: 11.7%
Cc1ccccc1S(=O)(=O)Cc1ccc(C(=O)NCCc2ccccc2)o1,"inconclusive: 18.5 µM [inhibitor, single point]",
COc1ccc(CNC(=O)c2cc3c(s2)CN(Cc2ccccc2)C3)cc1,,inactive: 117%
Cc1cccc(CSc2ncnc3ccccc23)c1,,inactive: 43.1%
COC(=O)C1C(=O)c2c([nH]c(C(=O)OCC3CCCO3)c2C)CC1C (centres undefined),"inconclusive: 10.4 µM [inhibitor, partial curve, poor fit]",
CCCCn1c(N)c(N(CC(C)C)C(=O)c2cc(-c3ccncc3)nc3ccccc23)c(=O)[nH]c1=O,,inactive: -34.6%
CSCCC(NC(=O)c1ccco1)C(=O)NCC1CCCO1 (centres undefined),,inactive: -15.8%
COC(=O)[C@@]12CCCCN1[C@H](c1ccc(-c3ccc(C(C)=O)cc3)c(OC)c1)[C@@H]1C(=O)N(C)C(=O)[C@@H]12,"inconclusive: 18.5 µM [inhibitor, partial curve, poor fit]",
CCOc1ccccc1Nc1nc(-c2sc(NC(=O)c3ccco3)nc2C)cs1,active: 2.33 µM,
Cc1ccc(-c2nnn(CC(=O)NCCC3=CCCCC3)n2)cc1,"inconclusive: 18.5 µM [inhibitor, single point]",

# Gathered by group, the entries above with a CF3 group.
Compound,Potency,"activity change, negative = inhibition"
CCOC(=O)C1(Cc2ccccc2C(F)(F)F)CCN(C(=O)c2cc(C(C)=O)n[nH]2)CC1,"inconclusive: 16.5 µM [inhibitor, single point]",
COc1cc(NC(=O)c2cc(C)on2)cc(C(=O)Nc2cccc(C(F)(F)F)c2)c1,"inconclusive: 10.4 µM [inhibitor, single point]",
